Some results were stated once for a whole list of compounds, not compound by compound. For some of these results: At least one structure is not confirmed: it was looked up by name or label, or the drawing left a doubt.
Columns and labels:
[1] = tested on: aorta smooth muscle of rabbit; experiment: Effects on aorta of rabbit (contraction of isolated aorta section caused by adrenalin); set-up: species or system New Zealand rabbit
Description: A New Zealand rabbit was beheaded and unconscious. After thoracotomy, its thoracic aorta was quickly taken out, and quickly placed in and flushed with a pre-cooled LOCK's solution (which comprised of 1000 ml water, 9 g NaCl, 0.35 g KCl, 0.35 g MgSO4.7H2O, 0.16 g KH2PO4, and 1 g NaHCO3) to remove bloodiness. The connective tissue outside the blood vessel was carefully cut off, and an aorta section of 2-3 mm wide at an angle of 45° relative to the vessel was taken for use in the following test.
The aorta section of 2 cm long was clamped at its both ends with frog heart clips, and put in a thermostatic perfusion tank of 38° C. with the lower end being fixed at the bottom of the tank and the top end being connected by a thread to a tensile transducer of a two-way electrophysiolograph. Oxygen was bubbled to the solution in the perfusion tank, and the contraction force of the aorta section was recorded after balancing it in the solution for 80 min. During which, the LOCK's solution was changed once per 20 min. After adding 1.2×10^−6 mg/ml adrenalin to the solution, the contraction curve of the aorta section was recorded.

[2] = tested on: ileum smooth muscle of guinea pig; experiment: Effects on ileum smooth muscle of guinea pig (automatic rhythmic contraction of isolated ileum section); conditions: for time for which relaxation of the smooth muscle continues / time after which contraction of the smooth muscle completely disappears: chloroform extract 5×10^−3, formula II or Ib 1×10^−4, range stated for the three samples together
Description: The section was clamped at its both ends with frog heart clips, and placed in a perfusion tank with the lower end being fixed at the bottom of the tank and the top end being connected by a thread to a tensile transducer of a two-way electrophysiolograph, so that the automatic rhythmic contraction of the ileum section was recorded. The Tai's nutrient solution in the tank was kept at a temperature of 35° C., into which pure […] was bubbled. […] The normal contraction curve of the ileum section was firstly recorded using isoprenaline as a positive control.

SMILES | concentration causing relaxation of aorta smooth muscle [1] | time for which relaxation of the smooth muscle continues ([2]; flushing once per 15 min) [h] | time after which contraction of the smooth muscle completely disappears [2] [min] | time until complete relaxation of smooth muscle ([2]; concentration range 5×10^−4 to 10×10^−2 mg/ml) [min] | relaxation time ([2]; concentration range 5×10^−4 to 10×10^−2 mg/ml, flushing once per 15 min) [h]
CC1(C)CNCC(C)(C)C1=O [Compound of formula II, 3,3,5,5-tetramethyl-4-piperidone] | greater than 5×10^−5 mg/ml | 5 to 7 | 2 to 3 | 3 to 5 | 4 to 5
CC1(C)CNCC(C)(C)C1O [Compound of formula Ib, 3,3,5,5-tetramethyl-4-piperidanol] | – | 5 to 7 | 2 to 3 | – | –
